According to PubChem BioAssay AID1439 (NMMLSC, 2008):
In all, about 220,000 compounds went through this assay and about 770 (0.35%) were called active. This list was built around the results that the source calls inconclusive (neither active nor inactive); the mix of calls is not that of the screen. Cut-off read from the data, not from the text of the source: active = binding response below about 49% or above about 150%; inconclusive = no clear call, values can overlap the other calls; inactive = in between.

Amino acid sequences for entries named in this document (tags omitted).
UniProt P09471, whole entry, looked up: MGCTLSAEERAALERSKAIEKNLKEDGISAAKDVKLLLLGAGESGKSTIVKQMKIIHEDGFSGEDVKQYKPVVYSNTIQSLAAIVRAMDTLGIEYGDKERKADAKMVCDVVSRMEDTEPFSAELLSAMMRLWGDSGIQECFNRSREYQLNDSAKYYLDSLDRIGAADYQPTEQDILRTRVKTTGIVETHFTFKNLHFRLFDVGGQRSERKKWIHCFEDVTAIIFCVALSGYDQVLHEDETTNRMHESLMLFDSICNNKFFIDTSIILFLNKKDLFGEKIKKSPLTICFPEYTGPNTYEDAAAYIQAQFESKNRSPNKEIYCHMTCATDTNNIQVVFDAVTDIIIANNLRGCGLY

target: Guanine nucleotide-binding protein G(o) subunit alpha (Homo sapiens) (UniProt P09471); experiment: RGS7-Galphao binding modulators, primary screen, biochemical, multiplexed bead flow cytometry (AID 1439); settings: at 10 µM, actives lie on both sides;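 note: fluorescent Galphao held in activated GDP-AlF4 state binding bead-coupled RGS7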

SMILES | binding response (% of control)
Cc1cc(C)c2c(C)[nH]nc2n1 | inconclusive: 32.8%
COc1ccc(C(=O)C(Sc2nnc(C)c(=O)[nH]2)c2ccc(OC)cc2)cc1 (stereo not given) | inconclusive: 136%
COc1cccc(NC(=S)/C(=C(\[O-])c2ccc([N+](=O)[O-])cc2)[n+]2ccccc2)c1 | inactive: 118%
Cn1c(N)c(C(=O)COC(=O)C2CCCC2)c(=O)n(C)c1=O | inconclusive: 107%
Cc1cc(Cl)ccc1NNC(=O)c1cccs1 | inconclusive: 144%
COC(=O)CCCC1=CC2=CC(=O)C(C)(OC(=O)c3cccs3)C(=O)C2=CN1Cc1ccc2c(c1)OCO2 (stereo not given) | inconclusive: 23.2%
O=C(C1CCN(S(=O)(=O)c2cccc3cccnc23)CC1)N1CCN(C2CCCCC2)CC1 | inactive: 105%
O=C1CCCc2ccccc2N1Cc1ccc(Cl)cc1Cl | inactive: 113%
N#Cc1nc(COc2ccc(F)cc2)oc1NCCN1CCOCC1 | inactive: 100%
COc1cccc(CNc2nc3ccc(C)cc3n3cnnc23)c1 | inconclusive: 108%
COC(=O)C1=C(C)NC(=O)C1(NC(=O)c1ccncc1)C(F)(F)F (stereo not given) | inconclusive: 111%
CCOC(=O)C(=CNNc1cccc(Cl)c1)C(=O)OCC | inconclusive: 146%
COc1ccccc1CNCC(=O)Nc1cc(S(=O)(=O)N2CCCCCC2)ccc1Cl | inconclusive: 319%
CC(Cc1ccccn1)NC(=O)CCc1nnc(C2CCCCC2)o1 (stereo not given) | inactive: 92.8%
Cc1ccc(C(c2sc3nc(C)nn3c2O)N2CCN(C(=O)c3ccco3)CC2)cc1 (stereo not given) | inactive: 99.6%
CCOc1ccc2[nH]c3c(N4CCC5(CC4)OCCO5)ncnc3c2c1 | inconclusive: 126%
COc1ccc(C2=C(O)C(C)N(c3ccccc3)C2=N)cc1OC (stereo not given) | inactive: 110%
N#Cc1cccnc1N1CCN(C(=O)COCC(=O)O)CC1 | inconclusive: 104%
COc1ccccc1NC(=O)NS(=O)(=O)c1ccc(C)cc1 | inactive: 101%
CN(C)C(C)(C)/C=C/C(O)(c1ccccc1)c1ccccc1 | inconclusive: 117%
Cc1cc(Cl)ccc1NNC(N)=S | inconclusive: 98.8%
O=C(OCc1nnn(Cc2ccccc2)c1-c1c(COC(=O)c2ccccc2)nnn1Cc1ccccc1)c1ccccc1 | inconclusive: 97.2%
COC(=O)CCCNC(=O)c1ccccn1 | active: 231% [activator]

SMILES | binding response (% of control)
Cc1ccc(S(=O)(=O)N2CCCCC2)cc1NC(=O)COC(=O)c1ccccc1F | inactive: 107%
CC(=O)c1ccc2c(c1)OCCOCCOc1ccc(C(C)=O)cc1OCCOCCO2 | inconclusive: 88.1%
COc1ccccc1NC(=O)Cn1nc(Cc2cccnc2)c2ccccc2c1=O | inconclusive: 108%
CN(C)c1cc[n+](CC(=O)Nc2ccc(OC(F)F)cc2)cc1 | inconclusive: 4.09%
CCOCCn1c(SCc2ccccc2)nc2c1c(=O)[nH]c(=O)n2C | inconclusive: 87.3%
COC(=O)C(NC(=O)c1ccc(C)cc1)(Nc1cccc(C)n1)C(F)(F)F (stereo not given) | inactive: 102%
FC(F)(F)c1ccc(C2[C@H]3CN(CC4CCCCC4)[C@H](c4ccccc4)C34CC2(c2cccnc2)C4)cc1 (stereo not given in full) | inconclusive: 52.3%
CCC1ON(c2ccccc2)C2c3nc4ccccc4n3CC12 (stereo not given) | inconclusive: 97.2%
O=C(N/N=C/c1ccc(Br)s1)c1ccco1 | inconclusive: 137%
COc1ccc(OCC(O)CNS(=O)(=O)c2ccc(C)cc2)cc1 (stereo not given) | inconclusive: 68.2%
COc1ccc(NC(=O)Cc2c[nH]c3ccccc23)cc1S(=O)(=O)N1CCOCC1 | inconclusive: 93.8%
COc1ccc(C(=O)CSc2n[nH]c(C)n2)cc1[N+](=O)[O-] | inconclusive: 136%
COc1ccc(C)cc1NC(=O)CCS(=O)(=O)c1ccc2c(c1)CCN2C(C)=O | inconclusive: 93.6%
Cc1cc(-c2cc(C(=O)NCc3ccccc3)on2)nc(NCC2CC2)n1 | inconclusive: 102%
Cc1ccccc1NC(=O)C(=O)Nc1ccccc1C | inconclusive: 39.4%
CCc1c(C(C)S(=O)(=O)c2ccccc2)[nH]c(=O)n1CC (stereo not given) | inconclusive: 80.1%
Cc1cc(C)cc(NC(=O)c2cc(C)n(Cc3cccs3)c2C)c1 | inconclusive: 234%
Cn1c2ccccc2c(=O)c2c(=O)n(Cc3ccco3)c(-c3ccc(F)cc3)nc21 | inconclusive: 106%
C[C@H](NC(=O)c1[nH]cnc1C(=O)Nc1ccc(Cl)cc1)C(=O)OC(C)(C)C | inconclusive: 105%
COc1c(C=O)c(CCN(C)C(=O)c2ccc(F)cc2)cc2c1OCO2 | inconclusive: 75.3%
O=C(COC(=O)Cc1ccc(Br)cc1)NC1CCCCCC1 | inconclusive: 94.3%
CCN(CC)CCCN1C(=O)CSC1c1ccc([N+](=O)[O-])cc1 (stereo not given) | inactive: 106%
CN(C)/C=N/NC(=O)c1ccccc1Cl | inconclusive: 99.2%

Another view of some results above.
C[C@H](NC(=O)c1[nH]cnc1C(=O)Nc1ccc(Cl)cc1)C(=O)OC(C)(C)C
  binding response (% of control): inconclusive: 105%
COc1c(C=O)c(CCN(C)C(=O)c2ccc(F)cc2)cc2c1OCO2
  binding response (% of control): inconclusive: 75.3%
O=C(COC(=O)Cc1ccc(Br)cc1)NC1CCCCCC1
  binding response (% of control): inconclusive: 94.3%
CCN(CC)CCCN1C(=O)CSC1c1ccc([N+](=O)[O-])cc1 (stereo not given)
  binding response (% of control): inactive: 106%

Further compounds.

SMILES | binding response (% of control)
CCOCCCNC(=O)C(NC(=O)c1ccc2c(c1)OCO2)c1ccccc1 (stereo not given) | inconclusive: 80.4%
Cc1ccccc1OCC(O)CN1CCN(C)CC1 (stereo not given) | inconclusive: 97.8%
Cc1ccc(C(=O)Nc2cccc(C(F)(F)F)c2)cc1NC(=O)c1cnnc2ccccc12 | inconclusive: 52.8%
Cn1c(=O)[nH]c(NC2CCCCC2)c(N=O)c1=O | inactive: 101%
Cc1cc(C(=O)N2CCN(C(=O)c3ccco3)CC2)ccc1[N+](=O)[O-] | inconclusive: 115%
Cc1ccc(NC(=O)c2ccc(CNc3c(N4CCC(C)CC4)c(=O)c3=O)cc2)cc1 | inconclusive: 107%
CCn1cc(C(=O)N2CCN(c3ccccc3F)CC2)c(=O)c2ccc(C)nc21 | inactive: 142%
Cc1ccc(Oc2ncccc2C(=O)NC2CCSC2=O)cc1 (stereo not given) | inactive: 99.5%
Cc1ccc(CC23CN4CCN(CC(C4)C2O)C3)c(C)c1 (stereo not given) | inactive: 121%
CCOC(=O)C1CCN(c2c(NCCCN3CCCCC3)c(=O)c2=O)CC1 | inconclusive: 97.7%
CCCC(=O)Nc1ccc(C(N)=O)cc1 | inconclusive: 134%
O=C(CCn1c(=O)c2ccccc2n(Cc2ccccc2)c1=O)NC1CCN(Cc2ccccc2)CC1 | inconclusive: 82.2%
O=C1CC(c2ccsc2)Sc2ccccc2N1 (stereo not given) | inconclusive: 82%
COC(=O)c1nc(N)sc1C | inactive: 94.9%
Nc1ccccc1-c1n[nH]c(=S)s1 | inconclusive: 130%
CC1=NN(c2ccccc2)C(=O)/C1=C/N(C)C | inconclusive: 68.6%
COc1cc(O)c(C(CC(=O)N2CCOCC2)c2ccc(N(C)C)cc2)c(OC)c1 (stereo not given) | inconclusive: 128%
CC(C)CNC(=O)NC(=O)COC(=O)COc1ccc(Cl)cc1Cl | inconclusive: 127%
CC(C)=CCCC1(C)C=Cc2c(c(C)cc3c2[nH]c2cc(O)ccc23)O1 (stereo not given) | inconclusive: 111%
CCN(Cc1ccccc1)C(=O)COC(=O)c1cnc(C)cn1 | inconclusive: 113%
Cc1c(Cl)cccc1NC(=O)Nc1cc(C(C)(C)C)nn1C | inconclusive: 64.8%
CC(C)Oc1ccc(-c2nc(NCC3CCCO3)c3ccccc3n2)cc1 (stereo not given) | inconclusive: 99.8%
CCCCOc1ccc([N+](=O)[O-])cc1C(=O)O | inconclusive: 116%

SMILES | binding response (% of control)
COc1ccc(/C=N/NC(=O)CCn2cnc3ccccc32)cc1 | inconclusive: 104%
CCCCNC(=O)C1CCN(S(=O)(=O)N2CCOCC2)CC1 | inactive: 101%
CCc1cc(=O)[nH]c(-n2[nH]c(-c3ccccc3)cc2=O)n1 | inactive: 103%
Cc1ccc(-c2cccc(C3CC=CC4C3C(=O)N(Cc3ccccc3)C4c3ccc4ccccc4c3)c2)cc1 (stereo not given) | inconclusive: 77.6%
C[C@H]1c2cccc(O)c2C(O)=C2C(=O)[C@]3(O)C(O)=C(C(N)=O)C(=O)[C@@H](N(C)C)[C@@H]3[C@@H](O)[C@@H]21 | inconclusive: 110%
NS(=O)(=O)c1ccc(NC(=O)COC(=O)c2cnccn2)cc1 | inconclusive: 91.5%
CCCCNS(=O)(=O)c1ccc2nc(-c3cccnc3)cc(C(=O)NCCCOCC)c2c1 | inconclusive: 113%
O=C(NC(=S)N1CCN(C/C=C/c2ccccc2)CC1)c1cccnc1 | inconclusive: 45.1%
CCCn1nnnc1NC(=O)COc1ccc(Cl)cc1C | active: 17.1%
COc1ccc(CCCc2nnc(SCc3nc4ccccc4c(=O)[nH]3)n2C)cc1C | inconclusive: 115%
COC(=O)CC1(C(=O)OC)Oc2ccc(Br)cc2C(=O)N1c1cc(Cl)c(Cl)cc1Cl (stereo not given) | inconclusive: 189%
COC(=O)CSc1cc(C(=O)c2nccn2C)c2ccccc2n1 | inactive: 104%
O=C(Cn1nnc2ccccc21)NNC(=O)c1ccccc1 | inconclusive: 1.04%
COc1cc(CC2COC(c3ccc(O)c(OC)c3)C2COC(C)=O)ccc1O (stereo not given) | inconclusive: 35.9%
O=C(Nc1cc(S(=O)(=O)N2CCOCC2)ccc1N1CCCC1)c1cccnc1Cl | inconclusive: -3.83%
Cc1cc(O)c(C(C)C)cc1N=Nc1ccccc1C(=O)O | inconclusive: 200%
CC(C)c1cc(CN2CCOCC2)cc(C(C)C)c1O | inconclusive: 128%
CCOC(=O)c1c(C)[nH]c(-c2csc(N)n2)c1C | inactive: 102%
COCCOC(=O)c1c(NC(=O)CNC2CCCc3ccccc32)sc(C(N)=O)c1C (stereo not given) | inconclusive: 78.2%
COCCCC1CCN(C(=O)CCc2nnc(CCCCc3ccccc3)o2)CC1 | inactive: 99.4%
O=C(O)c1ccccc1N/N=C/c1c(Sc2nnnn2-c2ccccc2)nc2ccccn2c1=O | inconclusive: 127%
